Common to all, as to assay: co-IP
For one experiment, the target named is T1, EGFP-CCDC66 (1-408) (UniProt A2RUB6).
T1 sequence: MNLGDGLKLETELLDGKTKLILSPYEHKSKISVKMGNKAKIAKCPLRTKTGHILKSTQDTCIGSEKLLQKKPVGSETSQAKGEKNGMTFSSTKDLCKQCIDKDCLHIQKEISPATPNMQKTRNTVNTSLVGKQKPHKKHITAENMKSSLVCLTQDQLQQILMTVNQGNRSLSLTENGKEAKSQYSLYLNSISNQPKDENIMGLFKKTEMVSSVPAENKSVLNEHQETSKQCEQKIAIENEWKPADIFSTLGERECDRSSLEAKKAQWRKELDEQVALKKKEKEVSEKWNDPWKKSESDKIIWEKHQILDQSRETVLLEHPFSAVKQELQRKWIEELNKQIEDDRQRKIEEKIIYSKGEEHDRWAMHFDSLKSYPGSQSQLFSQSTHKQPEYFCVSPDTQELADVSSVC

Amino acid sequences for entries named in this document (tags omitted).
UniProt O15078: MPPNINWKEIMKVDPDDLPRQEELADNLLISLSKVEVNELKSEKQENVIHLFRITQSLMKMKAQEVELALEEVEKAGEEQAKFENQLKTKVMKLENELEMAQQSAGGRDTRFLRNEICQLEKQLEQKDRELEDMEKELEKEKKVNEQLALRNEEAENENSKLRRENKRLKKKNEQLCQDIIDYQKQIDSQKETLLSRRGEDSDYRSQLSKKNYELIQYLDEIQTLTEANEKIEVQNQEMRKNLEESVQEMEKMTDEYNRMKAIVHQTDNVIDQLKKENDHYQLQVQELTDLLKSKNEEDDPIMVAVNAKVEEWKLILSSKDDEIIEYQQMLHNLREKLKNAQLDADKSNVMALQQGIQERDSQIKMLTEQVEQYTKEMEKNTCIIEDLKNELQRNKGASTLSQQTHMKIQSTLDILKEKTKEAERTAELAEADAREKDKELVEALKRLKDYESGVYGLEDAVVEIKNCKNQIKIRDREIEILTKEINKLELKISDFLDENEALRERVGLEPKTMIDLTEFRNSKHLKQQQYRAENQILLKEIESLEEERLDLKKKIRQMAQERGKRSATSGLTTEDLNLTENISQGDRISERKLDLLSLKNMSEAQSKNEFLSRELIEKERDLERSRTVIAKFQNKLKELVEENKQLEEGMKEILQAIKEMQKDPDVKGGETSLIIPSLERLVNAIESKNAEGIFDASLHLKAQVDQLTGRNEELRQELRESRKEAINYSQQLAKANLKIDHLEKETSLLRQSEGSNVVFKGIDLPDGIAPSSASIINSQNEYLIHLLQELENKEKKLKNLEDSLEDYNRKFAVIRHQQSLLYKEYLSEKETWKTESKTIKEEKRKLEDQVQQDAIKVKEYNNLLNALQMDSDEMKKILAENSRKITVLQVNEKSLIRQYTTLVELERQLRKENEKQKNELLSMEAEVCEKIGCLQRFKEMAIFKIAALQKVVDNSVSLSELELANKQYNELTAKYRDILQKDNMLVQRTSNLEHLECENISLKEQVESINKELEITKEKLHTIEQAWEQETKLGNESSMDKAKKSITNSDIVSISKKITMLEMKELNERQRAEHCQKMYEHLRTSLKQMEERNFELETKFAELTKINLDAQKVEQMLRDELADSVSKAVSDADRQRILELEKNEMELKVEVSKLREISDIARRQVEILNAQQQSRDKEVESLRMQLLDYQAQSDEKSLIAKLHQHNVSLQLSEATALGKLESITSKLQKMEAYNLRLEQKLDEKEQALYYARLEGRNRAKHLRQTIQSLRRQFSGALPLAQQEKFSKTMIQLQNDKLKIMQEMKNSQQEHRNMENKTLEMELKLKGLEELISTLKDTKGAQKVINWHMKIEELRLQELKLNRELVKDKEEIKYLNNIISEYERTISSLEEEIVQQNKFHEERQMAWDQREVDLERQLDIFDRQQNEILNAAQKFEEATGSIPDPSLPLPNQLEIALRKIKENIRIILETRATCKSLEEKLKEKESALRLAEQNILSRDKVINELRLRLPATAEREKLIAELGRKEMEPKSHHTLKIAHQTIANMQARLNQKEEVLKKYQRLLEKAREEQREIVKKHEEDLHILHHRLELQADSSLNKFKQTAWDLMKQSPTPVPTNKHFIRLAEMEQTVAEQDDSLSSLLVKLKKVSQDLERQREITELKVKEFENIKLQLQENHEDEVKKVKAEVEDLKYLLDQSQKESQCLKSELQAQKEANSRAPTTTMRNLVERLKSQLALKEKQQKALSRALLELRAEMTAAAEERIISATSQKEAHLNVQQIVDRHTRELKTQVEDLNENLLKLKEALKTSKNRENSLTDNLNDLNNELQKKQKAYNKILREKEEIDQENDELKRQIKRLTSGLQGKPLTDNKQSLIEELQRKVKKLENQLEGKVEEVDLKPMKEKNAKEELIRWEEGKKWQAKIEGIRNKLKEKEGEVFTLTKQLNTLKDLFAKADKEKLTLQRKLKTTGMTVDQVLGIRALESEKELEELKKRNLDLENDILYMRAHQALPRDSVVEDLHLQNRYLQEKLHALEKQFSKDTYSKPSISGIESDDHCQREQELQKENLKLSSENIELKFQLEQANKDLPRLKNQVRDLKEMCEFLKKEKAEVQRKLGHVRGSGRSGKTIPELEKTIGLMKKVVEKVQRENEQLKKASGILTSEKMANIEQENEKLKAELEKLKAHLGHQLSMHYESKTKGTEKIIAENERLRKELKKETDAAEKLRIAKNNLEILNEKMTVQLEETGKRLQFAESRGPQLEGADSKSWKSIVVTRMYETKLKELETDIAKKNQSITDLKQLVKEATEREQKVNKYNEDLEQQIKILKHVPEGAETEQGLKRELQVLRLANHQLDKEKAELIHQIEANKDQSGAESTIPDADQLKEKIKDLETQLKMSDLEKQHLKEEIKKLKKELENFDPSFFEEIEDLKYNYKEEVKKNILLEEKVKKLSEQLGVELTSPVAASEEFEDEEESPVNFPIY
UniProt Q1MSJ5: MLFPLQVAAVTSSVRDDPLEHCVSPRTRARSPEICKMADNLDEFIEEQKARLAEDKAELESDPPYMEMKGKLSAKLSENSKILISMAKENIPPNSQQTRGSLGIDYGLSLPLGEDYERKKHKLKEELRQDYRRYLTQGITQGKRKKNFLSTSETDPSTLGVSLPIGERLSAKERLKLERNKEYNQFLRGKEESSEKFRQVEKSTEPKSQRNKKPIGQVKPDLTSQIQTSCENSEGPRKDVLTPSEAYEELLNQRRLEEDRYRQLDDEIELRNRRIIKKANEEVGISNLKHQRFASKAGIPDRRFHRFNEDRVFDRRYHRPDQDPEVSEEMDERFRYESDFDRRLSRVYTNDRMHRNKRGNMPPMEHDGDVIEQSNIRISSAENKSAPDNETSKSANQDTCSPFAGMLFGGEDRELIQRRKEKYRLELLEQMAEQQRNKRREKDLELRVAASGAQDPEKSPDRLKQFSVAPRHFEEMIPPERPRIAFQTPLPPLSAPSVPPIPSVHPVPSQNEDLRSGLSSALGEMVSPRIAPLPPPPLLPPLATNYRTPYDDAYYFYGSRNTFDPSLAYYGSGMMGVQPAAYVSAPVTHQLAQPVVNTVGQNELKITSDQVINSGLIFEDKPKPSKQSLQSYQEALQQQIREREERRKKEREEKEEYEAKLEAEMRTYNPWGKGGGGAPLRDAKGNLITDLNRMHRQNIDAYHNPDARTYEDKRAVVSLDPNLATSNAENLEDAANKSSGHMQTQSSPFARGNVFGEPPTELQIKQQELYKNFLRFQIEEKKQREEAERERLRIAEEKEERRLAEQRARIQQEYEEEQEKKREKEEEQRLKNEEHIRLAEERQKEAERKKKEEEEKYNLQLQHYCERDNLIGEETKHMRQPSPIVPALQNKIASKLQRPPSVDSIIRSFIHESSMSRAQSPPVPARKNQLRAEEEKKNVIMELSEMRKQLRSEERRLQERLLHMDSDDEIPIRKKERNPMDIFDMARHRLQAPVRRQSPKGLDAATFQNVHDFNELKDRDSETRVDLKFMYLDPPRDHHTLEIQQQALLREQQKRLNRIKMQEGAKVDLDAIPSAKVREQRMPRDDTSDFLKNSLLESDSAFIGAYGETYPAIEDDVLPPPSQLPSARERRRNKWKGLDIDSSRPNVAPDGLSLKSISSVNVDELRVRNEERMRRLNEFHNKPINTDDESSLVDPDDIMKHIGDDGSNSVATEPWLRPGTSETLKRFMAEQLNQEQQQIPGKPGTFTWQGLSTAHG
UniProt Q15154: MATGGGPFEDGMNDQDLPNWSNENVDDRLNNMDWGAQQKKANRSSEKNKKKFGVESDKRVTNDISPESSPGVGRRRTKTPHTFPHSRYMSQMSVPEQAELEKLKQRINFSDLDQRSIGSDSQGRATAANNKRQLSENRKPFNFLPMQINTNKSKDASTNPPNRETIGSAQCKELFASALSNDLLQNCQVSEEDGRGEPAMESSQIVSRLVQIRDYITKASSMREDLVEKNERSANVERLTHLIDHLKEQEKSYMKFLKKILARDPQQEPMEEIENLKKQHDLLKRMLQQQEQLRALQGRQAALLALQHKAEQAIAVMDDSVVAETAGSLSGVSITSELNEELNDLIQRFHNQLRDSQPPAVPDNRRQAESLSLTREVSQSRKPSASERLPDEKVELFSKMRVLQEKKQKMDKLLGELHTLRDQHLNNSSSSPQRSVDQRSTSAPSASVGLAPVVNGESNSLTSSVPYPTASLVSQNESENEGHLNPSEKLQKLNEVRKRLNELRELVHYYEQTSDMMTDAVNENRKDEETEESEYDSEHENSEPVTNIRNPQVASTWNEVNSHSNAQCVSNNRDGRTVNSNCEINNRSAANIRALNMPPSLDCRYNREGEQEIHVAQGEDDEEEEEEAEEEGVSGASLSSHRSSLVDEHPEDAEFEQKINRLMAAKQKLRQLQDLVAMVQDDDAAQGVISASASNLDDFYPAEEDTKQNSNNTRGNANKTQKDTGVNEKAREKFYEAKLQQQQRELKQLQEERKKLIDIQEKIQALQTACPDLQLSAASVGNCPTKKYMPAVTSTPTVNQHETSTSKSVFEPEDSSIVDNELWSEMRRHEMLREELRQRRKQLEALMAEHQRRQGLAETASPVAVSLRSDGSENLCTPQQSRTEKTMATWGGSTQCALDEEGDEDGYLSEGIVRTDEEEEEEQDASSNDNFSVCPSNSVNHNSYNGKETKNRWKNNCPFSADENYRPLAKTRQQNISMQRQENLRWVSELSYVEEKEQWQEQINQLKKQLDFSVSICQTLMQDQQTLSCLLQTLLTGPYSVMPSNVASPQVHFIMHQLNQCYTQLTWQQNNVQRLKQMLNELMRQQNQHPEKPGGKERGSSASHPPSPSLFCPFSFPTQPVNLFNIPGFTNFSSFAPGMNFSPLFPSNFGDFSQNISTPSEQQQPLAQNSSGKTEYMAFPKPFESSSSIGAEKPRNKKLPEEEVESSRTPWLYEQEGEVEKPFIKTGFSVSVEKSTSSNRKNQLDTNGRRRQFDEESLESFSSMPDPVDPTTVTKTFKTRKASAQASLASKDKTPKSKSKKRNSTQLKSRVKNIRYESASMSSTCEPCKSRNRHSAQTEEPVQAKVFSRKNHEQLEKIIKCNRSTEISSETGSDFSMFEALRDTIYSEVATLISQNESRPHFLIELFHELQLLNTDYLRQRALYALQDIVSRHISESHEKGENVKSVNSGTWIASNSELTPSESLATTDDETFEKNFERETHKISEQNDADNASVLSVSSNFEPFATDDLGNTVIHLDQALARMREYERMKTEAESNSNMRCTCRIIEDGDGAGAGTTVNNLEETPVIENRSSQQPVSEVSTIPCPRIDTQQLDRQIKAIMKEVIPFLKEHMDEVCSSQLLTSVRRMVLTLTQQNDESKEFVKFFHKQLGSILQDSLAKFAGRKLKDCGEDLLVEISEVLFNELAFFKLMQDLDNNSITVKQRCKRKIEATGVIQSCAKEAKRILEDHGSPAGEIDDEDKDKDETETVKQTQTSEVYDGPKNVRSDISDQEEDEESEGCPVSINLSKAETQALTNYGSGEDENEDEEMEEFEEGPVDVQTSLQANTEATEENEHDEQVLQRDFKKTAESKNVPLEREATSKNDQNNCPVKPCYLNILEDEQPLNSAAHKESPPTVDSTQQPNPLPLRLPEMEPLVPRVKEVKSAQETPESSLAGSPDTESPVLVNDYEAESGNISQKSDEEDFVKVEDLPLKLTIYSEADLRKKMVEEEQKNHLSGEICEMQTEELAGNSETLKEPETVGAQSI

Another experiment deals with T2, EGFP-CCDC66 (570-948) (UniProt A2RUB6).
T2 sequence: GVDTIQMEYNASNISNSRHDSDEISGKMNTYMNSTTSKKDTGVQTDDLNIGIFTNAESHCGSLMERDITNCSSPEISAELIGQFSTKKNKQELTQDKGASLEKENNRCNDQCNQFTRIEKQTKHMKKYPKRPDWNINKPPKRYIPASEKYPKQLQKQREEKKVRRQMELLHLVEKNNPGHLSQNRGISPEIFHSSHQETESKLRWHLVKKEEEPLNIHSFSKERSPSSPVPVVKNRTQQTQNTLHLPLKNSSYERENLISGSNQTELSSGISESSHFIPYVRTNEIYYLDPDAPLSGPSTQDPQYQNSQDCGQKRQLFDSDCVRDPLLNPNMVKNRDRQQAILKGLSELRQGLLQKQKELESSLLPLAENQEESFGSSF

The next experiment concerns the target T3, EGFP-CCDC66 full length (UniProt A2RUB6).
T3 sequence: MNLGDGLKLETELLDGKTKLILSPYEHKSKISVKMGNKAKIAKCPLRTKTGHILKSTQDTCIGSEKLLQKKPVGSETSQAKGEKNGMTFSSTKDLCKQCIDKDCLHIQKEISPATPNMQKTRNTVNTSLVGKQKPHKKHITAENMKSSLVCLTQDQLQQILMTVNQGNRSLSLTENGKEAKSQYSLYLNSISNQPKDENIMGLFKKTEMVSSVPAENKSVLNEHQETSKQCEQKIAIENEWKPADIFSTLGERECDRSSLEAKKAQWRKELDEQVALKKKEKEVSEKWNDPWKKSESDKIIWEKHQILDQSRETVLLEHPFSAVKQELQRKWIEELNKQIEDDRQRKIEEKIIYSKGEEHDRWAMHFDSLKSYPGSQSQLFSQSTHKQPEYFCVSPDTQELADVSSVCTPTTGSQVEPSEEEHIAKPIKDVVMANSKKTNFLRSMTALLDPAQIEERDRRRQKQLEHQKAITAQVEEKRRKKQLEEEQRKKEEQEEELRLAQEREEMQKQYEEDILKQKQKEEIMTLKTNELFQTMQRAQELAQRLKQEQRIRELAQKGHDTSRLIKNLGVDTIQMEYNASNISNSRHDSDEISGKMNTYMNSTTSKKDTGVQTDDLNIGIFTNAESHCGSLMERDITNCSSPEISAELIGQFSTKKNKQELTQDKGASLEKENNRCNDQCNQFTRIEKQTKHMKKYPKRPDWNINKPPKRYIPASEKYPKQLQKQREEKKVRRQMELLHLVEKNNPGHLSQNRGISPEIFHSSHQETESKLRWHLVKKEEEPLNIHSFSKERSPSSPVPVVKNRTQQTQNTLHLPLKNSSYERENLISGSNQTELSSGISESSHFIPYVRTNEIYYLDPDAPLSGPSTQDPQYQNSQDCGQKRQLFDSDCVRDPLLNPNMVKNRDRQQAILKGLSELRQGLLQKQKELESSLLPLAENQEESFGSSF

No constants are given. Whether binding was seen depends on the method and setting. Binding seen in cells or lysates may run through a third protein. Some results given as binding are weak or reduced against the parent protein; the word gives no strength. Where a sequence is shown, tags or fusion partners need not be part of it.

For the molecule CEP290 (from UniProt O15078 1-2479), the binding entry is “no binding” with EGFP-CCDC66 (1-408), “no binding” in the experiment with EGFP-CCDC66 (570-948) and “binds” in the experiment with EGFP-CCDC66 full length.
As to CSPP1 (from UniProt Q1MSJ5 1-1256), the binding result with EGFP-CCDC66 (1-408) is “no binding”; with EGFP-CCDC66 (570-948), “no binding”; with EGFP-CCDC66 full length, “binds”.
Consider PCM1 (from UniProt Q15154 1-2024), for which the binding result in the experiment with EGFP-CCDC66 (1-408) was “no binding”; with EGFP-CCDC66 (570-948), “no binding”; with EGFP-CCDC66 full length, “binds”.

B1: CEP104 (protein, UniProt O60308 1-925)
chain: MPHKIGFVVVSSSGHEDGFSARELMIHAPTVSGWRSPRFCQFPQEIVLQMVERCRIRKLQLLAHQYMISSKIEFYISESLPEYFAPYQAERFRRLGYVSLCDNEKTGCKARELKSVYVDAVGQFLKLIFHQNHVNKYNIYNQVALVAINIIGDPADFSDESNTASREKLIDHYLGHNSEDPALEGTYARKSDYISPLDDLAFDMYQDPEVAQIIRKLDERKREAVQKERYDYAKKLKQAIADLQKVGERLGRYEVEKRCAVEKEDYDLAKEKKQQMEQYRAEVYEQLELHSLLDAELMRRPFDLPLQPLARSGSPCHQKPMPSLPQLEERGTENQFAEPFLQEKPSSYSLTISPQHSAVDPLLPATDPHPKINAESLPYDERPLPAIRKHYGEAVVEPEMSNADISDARRGGMLGEPEPLTEKALREASSAIDVLGETLVAEAYCKTWSYREDALLALSKKLMEMPVGTPKEDLKNTLRASVFLVRRAIKDIVTSVFQASLKLLKMIITQYIPKHKLSKLETAHCVERTIPVLLTRTGDSSARLRVTAANFIQEMALFKEVKSLQIIPSYLVQPLKANSSVHLAMSQMGLLARLLKDLGTGSSGFTIDNVMKFSVSALEHRVYEVRETAVRIILDMYRQHQASILEYLPPDDSNTRRNILYKTIFEGFAKIDGRATDAEMRARRKAATEEAEKQKKEEIKALQGQLAALKEIQAEVQEKESDAVKPKNQDIQGGKAAPAEALGIPDEHYLDNLCIFCGERSESFTEEGLDLHYWKHCLMLTRCDHCKQVVEISSLTEHLLTECDKKDGFGKCYRCSEAVFKEELPRHIKHKDCNPAKPEKLANRCPLCHENFSPGEEAWKAHLMGPAGCTMNLRKTHILQKAPALQPGKSSAVAASGPLGSKAGSKIPTPKGGLSKSSSRTYAKR
Regarding B1, the binding entry with EGFP-CCDC66 (1-408) is reported as “no binding”; in the experiment with EGFP-CCDC66 (570-948), “no binding”; in the experiment with EGFP-CCDC66 full length it was “binds”.

For the origin of these results see doi:10.1101/2022.04.10.487777.
